From patent US20160290999A1 (SYSMEX, published 2016) come the findings set out here.

Chains of the proteins cited; added tags and fusions are not shown. Residues count along the entry.
UniProt P02768, residues 25-609: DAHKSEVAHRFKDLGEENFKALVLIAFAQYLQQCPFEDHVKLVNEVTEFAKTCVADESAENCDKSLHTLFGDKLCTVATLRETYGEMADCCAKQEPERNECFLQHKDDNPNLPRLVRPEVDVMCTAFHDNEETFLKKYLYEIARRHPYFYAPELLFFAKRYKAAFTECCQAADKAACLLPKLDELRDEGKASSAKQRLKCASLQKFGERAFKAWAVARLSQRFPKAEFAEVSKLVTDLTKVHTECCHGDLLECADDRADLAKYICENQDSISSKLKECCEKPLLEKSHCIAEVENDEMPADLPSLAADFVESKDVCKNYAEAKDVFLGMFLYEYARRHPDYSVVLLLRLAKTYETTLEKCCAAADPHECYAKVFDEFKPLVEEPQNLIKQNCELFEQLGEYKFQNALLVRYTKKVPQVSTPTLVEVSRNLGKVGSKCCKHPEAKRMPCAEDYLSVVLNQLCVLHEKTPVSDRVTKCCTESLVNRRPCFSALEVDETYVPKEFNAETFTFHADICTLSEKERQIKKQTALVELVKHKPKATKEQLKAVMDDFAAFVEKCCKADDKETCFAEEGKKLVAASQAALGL

The target of experiment [1] is T1, Human serum albumin (human, UniProt P02768 25-609).
T1 construct: Purchased protein used in solution; In the hydrothermal experiments it is heat-aggregated into an insoluble precipitate; also called HSA
The experiment in a line: hydrothermal treatment of TMR-labeled SA21 with 300 µM HSA, SDS-PAGE of the supernatant and visual inspection.

In experiment [2] the target is T1, Human serum albumin. The experiment in a line: hydrothermal treatment at 160° C. in human serum, red colour of the insoluble fraction.

Results are given in words; binding and its absence hold for the method and conditions named. Some entries that bind do so weakly or less than the wild type.

B1: TMR-labeled SA21 (peptide)
peptide: DDEWLCGWRPLCIDEILR
modifications: tetramethyl rhodamine (TMR) label, site not stated
As to B1, the binding result in experiment [1] and in experiment [2] was “binds” each time.
